System: nitric oxide synthase (NOS)
Experiment: Nitric oxide synthase activity in brain regions, radiometric [3H]L-citrulline method
Assay type: in vivo, Wistar rats
Details: Group No. 2 (morphine)
Experimental: After the above experiments the rat brains were isolated and immediately placed in the ice cold 0.9% solution of sodium chloride. After cooling the following structures were isolated from the brain: cerebral cortex, hippocampus, mesencephalon, striatum, brainstem, hypothalamus and cerebellum. The isolated tissue was homogenized in a Potter S homogenizer for 3 minutes at 1500 rpm in 4-5 volumes of 20 mM HEPES (pH 7.5) at 4° C. […]
The activity of nitric oxide synthase (NOS) was determined using a radiometric method by the rate of L-citrulline accumulation in a reaction of [^3H] […]
The reaction was initiated by adding brain supernatant in the reaction medium containing 2 μCi/ml of [3H] […] After the sorption the radioactivity of the samples was determined on a scintillation counter SL-4000 (“Intertechnique”). The activity of Ca^2+-dependent and Ca^2+-independent NOS isoforms was determined by the difference of rates of [^3H]L-citrulline formation in three parallel samples containing 2 mM EDTA (Ca^2+ chelator), 2 mM EDTA+2 mM L-NAME (inhibitor all NOS isoforms) or without inhibitors. […]
The content of protein in the samples was determined by the Bradford method (Bradford M. M. A rapid and sensitive method for quantitation of microgram quantities of protein using the principle of protein binding . Anal. Biochem., 1976, V. 72, p. 248-254) using Coumassi dye. […]

CN1CC[C@]23c4c5ccc(O)c4O[C@H]2[C@@H](O)C=C[C@H]3[C@H]1C5.Cl [morphine, morphine hydrochloride, reference compound]
Activity of NOS, hippocampus: 3.10 ± 0.20 nmol/min/mg of protein
Activity of NOS, striatum: 1.19 ± 0.14 nmol/min/mg of protein
